No constants are given. Whether binding was seen depends on the method and setting. Some results given as binding are weak or reduced against the parent protein; the word gives no strength. For some assays here: Tags and fused reporters may be left off the sequences shown.
Legend:
[1] = molecular target: recombinant CD33-Fc fusion (UniProt P20138); experiment: flow cytometry; anti-CD33 VHH on transduced T cells detected with recombinant CD33-Fc fusion
[2] = molecular target: T1, recombinant CLL1-Fc fusion (UniProt Q5QGZ9); experiment: flow cytometry; anti-CLL1 VHH on transduced T cells detected with recombinant CLL1-Fc fusion
T1 sequence (looked up): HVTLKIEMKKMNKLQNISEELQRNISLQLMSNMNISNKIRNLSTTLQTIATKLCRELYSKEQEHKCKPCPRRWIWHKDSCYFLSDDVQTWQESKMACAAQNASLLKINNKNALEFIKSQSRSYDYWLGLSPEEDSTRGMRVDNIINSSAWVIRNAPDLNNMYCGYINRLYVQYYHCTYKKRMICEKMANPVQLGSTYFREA

By UniProt entry, the sequences of proteins in these tests, tags left out. Residues count along the entry.
UniProt P20138, residues 18-259: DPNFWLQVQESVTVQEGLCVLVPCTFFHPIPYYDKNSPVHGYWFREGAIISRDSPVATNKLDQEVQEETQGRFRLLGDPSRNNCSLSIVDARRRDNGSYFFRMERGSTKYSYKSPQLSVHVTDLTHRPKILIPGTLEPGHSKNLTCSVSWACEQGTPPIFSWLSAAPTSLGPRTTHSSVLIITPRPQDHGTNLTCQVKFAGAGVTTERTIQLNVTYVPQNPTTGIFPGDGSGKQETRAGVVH

binding [1]: binds | binding [2]: binds
B1: SR006 targeting component (antiCLL1.G4S.FRB.2xG4S.antiCD33.minCD4hinge.CD4tm.CD4ic) on SR006-T cells (protein)
chain: EVQLVESGGGEVQPGGSLRLSCAASGFLFSIYDMNWYRQAPGKEREWVAGITNNGYSTAYAESVKGRFTISRDNAKNTIYLQMSSLRAEDTAVYYCHADLTKAYDVEYAWGQGTLVTVKPGGGGSLWHEMWHEGLEEASRLYFGERNVKGMFEVLEPLHAMMERGPQTLKETSFNQAYGRDLMEAQEWCRKYMKSGNVKDLTQAWDLYYHVFRRISKGGGGSGGGGSEVQLVESGGGEVQPGGSLRLSCAASRSSGIDVMGWYRQAPGKERELVAEISGVGDTNYAASLADRFTVSRDNAKNTVYLQMSSLRAEDTAVYYCNAHSFLDLVGAWGQGTLVTVKPSNIKVLPTWSTPVQPMALIVLGGVAGLLLFIGLGIFFCVRCRHRRRQ

Reference: patent US20250242024A1
